Source: publication PMC3514159
Results are given in words; binding and its absence hold for the method and conditions named. Some results given as binding are weak or reduced against the parent protein; the word gives no strength.

Amino acid sequences for entries named in this document (tags omitted).
UniProt Q9BYR6: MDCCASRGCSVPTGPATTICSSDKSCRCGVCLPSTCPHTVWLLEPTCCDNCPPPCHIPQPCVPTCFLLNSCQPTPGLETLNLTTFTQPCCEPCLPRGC
UniProt Q8WUM4: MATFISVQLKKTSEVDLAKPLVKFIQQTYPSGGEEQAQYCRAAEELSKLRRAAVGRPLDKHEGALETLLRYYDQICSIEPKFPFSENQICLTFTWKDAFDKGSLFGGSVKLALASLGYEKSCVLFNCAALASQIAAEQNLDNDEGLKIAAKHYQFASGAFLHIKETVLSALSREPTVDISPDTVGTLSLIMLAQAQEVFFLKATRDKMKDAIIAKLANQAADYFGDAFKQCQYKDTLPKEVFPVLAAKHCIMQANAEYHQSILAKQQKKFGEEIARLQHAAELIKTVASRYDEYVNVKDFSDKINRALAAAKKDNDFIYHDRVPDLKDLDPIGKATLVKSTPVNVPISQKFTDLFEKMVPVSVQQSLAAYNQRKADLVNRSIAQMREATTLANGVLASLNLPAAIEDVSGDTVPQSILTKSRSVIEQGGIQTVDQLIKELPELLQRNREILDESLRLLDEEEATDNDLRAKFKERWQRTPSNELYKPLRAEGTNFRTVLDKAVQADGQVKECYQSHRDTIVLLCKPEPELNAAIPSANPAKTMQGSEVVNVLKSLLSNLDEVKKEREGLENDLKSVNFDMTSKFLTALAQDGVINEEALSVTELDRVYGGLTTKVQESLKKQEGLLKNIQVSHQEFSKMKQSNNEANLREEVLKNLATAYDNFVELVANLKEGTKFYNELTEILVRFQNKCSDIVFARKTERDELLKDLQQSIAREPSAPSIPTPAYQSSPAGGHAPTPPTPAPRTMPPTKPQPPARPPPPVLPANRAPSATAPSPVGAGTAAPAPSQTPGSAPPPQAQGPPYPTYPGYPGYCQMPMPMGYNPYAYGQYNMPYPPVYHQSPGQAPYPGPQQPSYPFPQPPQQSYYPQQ
UniProt Q99697: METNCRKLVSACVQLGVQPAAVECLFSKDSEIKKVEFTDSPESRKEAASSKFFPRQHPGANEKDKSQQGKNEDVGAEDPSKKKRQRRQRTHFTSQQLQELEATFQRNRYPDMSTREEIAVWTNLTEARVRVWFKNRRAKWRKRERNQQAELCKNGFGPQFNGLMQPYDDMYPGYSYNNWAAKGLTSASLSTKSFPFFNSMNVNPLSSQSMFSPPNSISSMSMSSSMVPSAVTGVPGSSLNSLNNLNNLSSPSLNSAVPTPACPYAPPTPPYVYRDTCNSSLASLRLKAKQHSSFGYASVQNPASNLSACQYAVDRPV
UniProt Q92824: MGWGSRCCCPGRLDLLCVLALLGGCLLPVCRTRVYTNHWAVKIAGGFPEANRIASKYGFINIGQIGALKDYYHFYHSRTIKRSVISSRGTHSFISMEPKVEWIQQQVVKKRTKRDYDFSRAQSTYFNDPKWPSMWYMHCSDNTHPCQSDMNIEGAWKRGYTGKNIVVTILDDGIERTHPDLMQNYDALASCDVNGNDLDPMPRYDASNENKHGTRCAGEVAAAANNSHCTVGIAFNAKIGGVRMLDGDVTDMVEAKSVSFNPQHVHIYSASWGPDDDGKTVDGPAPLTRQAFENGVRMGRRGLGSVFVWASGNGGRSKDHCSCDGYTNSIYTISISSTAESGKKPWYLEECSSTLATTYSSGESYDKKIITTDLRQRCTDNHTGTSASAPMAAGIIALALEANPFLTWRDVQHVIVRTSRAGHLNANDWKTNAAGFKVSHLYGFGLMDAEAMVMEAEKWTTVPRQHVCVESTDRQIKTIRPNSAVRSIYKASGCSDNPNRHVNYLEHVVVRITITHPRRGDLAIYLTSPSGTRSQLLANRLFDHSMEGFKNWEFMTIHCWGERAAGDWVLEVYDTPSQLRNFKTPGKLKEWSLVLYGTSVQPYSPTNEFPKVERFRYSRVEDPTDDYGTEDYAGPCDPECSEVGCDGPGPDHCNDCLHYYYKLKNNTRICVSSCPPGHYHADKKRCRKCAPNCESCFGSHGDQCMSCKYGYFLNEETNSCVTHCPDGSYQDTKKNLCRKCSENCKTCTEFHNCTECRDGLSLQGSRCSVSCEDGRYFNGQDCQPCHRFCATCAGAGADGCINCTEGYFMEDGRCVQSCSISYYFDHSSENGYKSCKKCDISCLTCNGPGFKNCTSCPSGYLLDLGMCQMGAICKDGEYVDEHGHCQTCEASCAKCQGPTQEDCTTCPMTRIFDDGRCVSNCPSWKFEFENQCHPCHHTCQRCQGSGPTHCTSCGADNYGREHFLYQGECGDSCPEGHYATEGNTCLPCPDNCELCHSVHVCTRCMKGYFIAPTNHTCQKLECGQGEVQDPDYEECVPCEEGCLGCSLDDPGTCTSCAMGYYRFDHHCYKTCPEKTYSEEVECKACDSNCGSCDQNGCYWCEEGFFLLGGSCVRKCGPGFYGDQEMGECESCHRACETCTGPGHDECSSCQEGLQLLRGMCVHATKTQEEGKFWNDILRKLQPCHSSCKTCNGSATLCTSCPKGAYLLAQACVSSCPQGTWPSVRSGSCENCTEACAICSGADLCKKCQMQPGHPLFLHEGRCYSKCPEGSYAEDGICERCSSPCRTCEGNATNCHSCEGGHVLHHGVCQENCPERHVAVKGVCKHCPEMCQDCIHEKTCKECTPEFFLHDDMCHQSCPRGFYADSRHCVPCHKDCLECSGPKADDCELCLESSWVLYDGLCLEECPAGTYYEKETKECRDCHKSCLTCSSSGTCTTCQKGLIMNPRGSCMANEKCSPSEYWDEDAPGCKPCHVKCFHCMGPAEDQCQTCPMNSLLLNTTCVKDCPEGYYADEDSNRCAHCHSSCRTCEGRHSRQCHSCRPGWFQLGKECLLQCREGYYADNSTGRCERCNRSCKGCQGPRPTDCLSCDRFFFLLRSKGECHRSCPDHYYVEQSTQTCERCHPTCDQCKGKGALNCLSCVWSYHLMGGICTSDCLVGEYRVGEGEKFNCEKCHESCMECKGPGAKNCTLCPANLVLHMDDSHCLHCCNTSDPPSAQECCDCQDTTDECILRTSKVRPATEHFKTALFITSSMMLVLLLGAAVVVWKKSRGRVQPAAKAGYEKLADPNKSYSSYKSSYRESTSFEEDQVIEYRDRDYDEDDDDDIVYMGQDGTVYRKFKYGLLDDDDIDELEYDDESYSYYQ
UniProt Q96G97: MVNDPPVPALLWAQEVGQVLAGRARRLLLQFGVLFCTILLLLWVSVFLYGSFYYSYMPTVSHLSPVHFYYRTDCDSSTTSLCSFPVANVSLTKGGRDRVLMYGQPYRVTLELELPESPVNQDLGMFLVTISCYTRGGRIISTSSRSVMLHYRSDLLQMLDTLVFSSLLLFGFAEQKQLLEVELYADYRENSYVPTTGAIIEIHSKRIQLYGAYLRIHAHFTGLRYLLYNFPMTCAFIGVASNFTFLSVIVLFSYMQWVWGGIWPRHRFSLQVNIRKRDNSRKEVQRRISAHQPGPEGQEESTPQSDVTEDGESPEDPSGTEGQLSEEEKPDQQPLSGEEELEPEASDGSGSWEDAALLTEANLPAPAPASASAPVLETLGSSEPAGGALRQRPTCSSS
UniProt P09022: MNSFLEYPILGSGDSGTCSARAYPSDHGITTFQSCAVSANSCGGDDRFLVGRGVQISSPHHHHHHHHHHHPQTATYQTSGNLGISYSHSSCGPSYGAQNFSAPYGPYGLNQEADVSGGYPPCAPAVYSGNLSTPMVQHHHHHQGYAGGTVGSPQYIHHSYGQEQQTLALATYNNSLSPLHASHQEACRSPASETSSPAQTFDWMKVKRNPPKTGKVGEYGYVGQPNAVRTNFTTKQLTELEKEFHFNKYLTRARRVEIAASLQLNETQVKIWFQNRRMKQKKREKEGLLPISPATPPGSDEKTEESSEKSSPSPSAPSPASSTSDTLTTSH

Experiments:
Experiment in all cases: two-hybrid; AD-Hoxa1 (Gal4 activation domain) in MATa Y8800 mated with the DB-hORF library in MATα Y8930; 30°C; selection on Sc-L-T-H + 1 mM 3AT, retest on Sc-L-T-H, Sc-L-T-A and Sc-L-T-H-A+3AT
[1] = molecular target: T1, RAB33A (member RAS oncogene family) (human) (UniProt Q14088)
T1 sequence: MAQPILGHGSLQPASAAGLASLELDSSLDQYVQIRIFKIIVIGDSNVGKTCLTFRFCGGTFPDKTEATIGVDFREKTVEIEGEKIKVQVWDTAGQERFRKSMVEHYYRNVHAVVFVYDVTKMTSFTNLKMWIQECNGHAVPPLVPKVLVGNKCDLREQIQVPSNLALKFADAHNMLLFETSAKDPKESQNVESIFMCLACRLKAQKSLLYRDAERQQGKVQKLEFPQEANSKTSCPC

[2] = molecular target: T2, keratin associated protein 5-9 (human) (UniProt P26371)
T2 sequence: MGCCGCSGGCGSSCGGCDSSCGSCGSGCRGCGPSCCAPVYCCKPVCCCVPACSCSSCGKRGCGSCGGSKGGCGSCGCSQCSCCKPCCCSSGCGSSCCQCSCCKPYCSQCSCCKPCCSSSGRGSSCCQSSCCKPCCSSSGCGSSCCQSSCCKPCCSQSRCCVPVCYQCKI

[3] = molecular target: keratin associated protein 3-3 (human) (UniProt Q9BYR6)
[4] = molecular target: programmed cell death 6 interacting protein (human) (UniProt Q8WUM4)
[5] = molecular target: paired-like homeodomain 2 (human) (UniProt Q99697)
[6] = molecular target: proprotein convertase subtilisin/kexin type 5 (human) (UniProt Q92824)
[7] = molecular target: T3, phospholipid scramblase 4 (human) (UniProt Q9NRQ2)
T3 sequence: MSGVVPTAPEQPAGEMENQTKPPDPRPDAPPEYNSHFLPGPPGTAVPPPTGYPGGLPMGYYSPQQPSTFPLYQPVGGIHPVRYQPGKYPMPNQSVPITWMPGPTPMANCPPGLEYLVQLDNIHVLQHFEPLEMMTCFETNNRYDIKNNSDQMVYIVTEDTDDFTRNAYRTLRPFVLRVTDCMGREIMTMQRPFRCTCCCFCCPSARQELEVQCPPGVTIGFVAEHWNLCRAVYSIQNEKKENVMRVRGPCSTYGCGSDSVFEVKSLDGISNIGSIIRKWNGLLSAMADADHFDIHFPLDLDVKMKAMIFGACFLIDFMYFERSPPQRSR

[8] = molecular target: Berardinelli-Seip congenital lipodystrophy 2 (human) (UniProt Q96G97)
[9] = molecular target: T4, SPARC related modular calcium binding 1 (human) (UniProt Q9H4F8)
T4 sequence: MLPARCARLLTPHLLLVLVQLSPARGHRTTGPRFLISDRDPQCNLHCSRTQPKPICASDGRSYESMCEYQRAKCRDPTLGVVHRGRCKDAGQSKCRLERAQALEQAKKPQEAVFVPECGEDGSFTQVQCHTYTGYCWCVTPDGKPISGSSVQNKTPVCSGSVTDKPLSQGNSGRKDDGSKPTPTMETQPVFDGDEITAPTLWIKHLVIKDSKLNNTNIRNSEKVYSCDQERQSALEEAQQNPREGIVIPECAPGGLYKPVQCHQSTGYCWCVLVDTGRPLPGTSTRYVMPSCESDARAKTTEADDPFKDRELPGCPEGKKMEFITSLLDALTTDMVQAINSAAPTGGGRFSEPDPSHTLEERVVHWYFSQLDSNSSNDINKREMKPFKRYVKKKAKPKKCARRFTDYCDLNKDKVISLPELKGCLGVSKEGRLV

[10] = molecular target: T5, glycoprotein IX (platelet) (human) (UniProt P14770)
T5 sequence: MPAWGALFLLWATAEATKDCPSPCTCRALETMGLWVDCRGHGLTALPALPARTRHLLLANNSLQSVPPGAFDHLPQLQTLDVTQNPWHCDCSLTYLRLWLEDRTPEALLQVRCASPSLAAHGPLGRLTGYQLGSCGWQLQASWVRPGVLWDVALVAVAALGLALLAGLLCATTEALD

Measured: binding

Hoxa1 (from UniProt P09022 1-331)
binds: all assays above
